Taken from: PubChem BioAssay AID686938 (Drosophila RNAi Screening Center, 2013)

Purpose: 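Knock-downs reducing store-operated calcium influx in Drosophila cells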 (primary screen)
Cell system: Drosophila S2R+ cells
Reagents: long dsRNA against Drosophila genes, about 0.25 µg dsRNA per well, roughly 10,000 cells
Timing: 5 days of knock-down before the calcium assay
Conditions: thapsigargin (SERCA pump blocker) to empty calcium stores; entry signal taken 4 min after adding it
Measured: 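Per-well fluo-4 fluorescence in two replicates, unnormalised, measured in resting cells and 4 min after store depletion by the SERCA blocker thapsigargin; ratio of the two present in few wells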
Reading the numbers: calcium entry signal: higher = stronger calcium signal after store depletion; resting calcium signal: higher = higher resting calcium signal
Call rule: 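Called when the plate z-score of the entry-to-rest ratio, mean of duplicates, falls below −3; wells with low overall dye signal (Fmax z below −2) or more than five off-targets excluded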
Meaning of the calls: active = strongly reduced calcium entry; inactive = no strong reduction
In all, the deposit lists about 23,000 reagents; below is an unselected part of those that have a named target and a result. Of all reagents, 75 (0.33%) were called active. 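Raw plate signals without normalisation; calls rest on plate z-scores that were not deposited; ratio present for only 364 wells.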 Entries without a mark were called inactive. Names joined by + are all predicted targets of the reagent. Not stated in the record: the dose of the treatment.

target	amplicon	calcium entry signal, replicate 1 (fluorescence units)	calcium entry signal, replicate 2 (fluorescence units)	resting calcium signal, replicate 1 (fluorescence units)	resting calcium signal, replicate 2 (fluorescence units)
blot	DRSC09485	2.48e7	3.21e7	1.22e7	1.57e7
blot	DRSC11328	3.93e7	4.60e7	1.83e7	3.06e7
Dgp-1	DRSC07400	5.37e7	5.05e7	2.30e7	2.35e7
inv	DRSC07633	3.85e7	3.07e7	2.00e7	1.43e7
CG30324	DRSC22655	4.13e7	3.22e7	2.52e7	1.54e7
Kdm4A	DRSC06586	3.25e7	2.64e7	1.43e7	1.22e7
CG9525	DRSC03249	3.22e7	4.04e7	1.46e7	1.79e7
TORIP	DRSC10104	3.18e7	3.91e7	1.67e7	2.66e7
CG10477	DRSC09732	2.75e7	6.36e7	1.30e7	2.28e7
ATPsynD	DRSC14093	2.77e7	3.58e7	4.69e7	1.74e7
pie	DRSC03590	4.40e7		2.50e7	
CG42375 + CG9288	DRSC16468	2.82e7	3.01e7	1.15e7	1.40e7
CG13082	DRSC02186	4.91e7	4.96e7	2.15e7	2.21e7
CG30043	DRSC06285	2.80e7	4.49e7	1.50e7	1.80e7
lute	DRSC14812	3.26e7	5.18e7	1.59e7	5.17e7
lute	DRSC15769	3.54e7	3.54e7	1.83e7	1.69e7
CG31231	DRSC13308	3.85e7	3.15e7	2.18e7	1.65e7
mas	DRSC08720	4.52e7	3.92e7	2.99e7	1.78e7
CG4686	DRSC15622	3.78e7	4.46e7	5.66e7	2.03e7
asun	DRSC16733	3.63e7	2.76e7	1.74e7	1.25e7
CG18081	DRSC10294	4.25e7	7.52e7	2.14e7	2.67e7
BNIP3	DRSC11761	2.72e7	2.32e7	1.40e7	2.47e7
Vps51	DRSC06519	4.18e7	3.85e7	1.81e7	1.91e7
CG14455	DRSC11712	2.24e7	3.58e7	1.11e7	1.45e7
Lamp1	DRSC03727	3.92e7	3.64e7	1.94e7	1.58e7
Fas2	DRSC17308	4.25e7	4.23e7	2.02e7	1.80e7
Fas2	DRSC17309	4.95e7	5.30e7	2.48e7	2.13e7
Fas2	DRSC18664	3.62e7	4.36e7	1.86e7	2.04e7
mRpS28	DRSC06939	6.37e7	6.39e7	2.74e7	2.79e7
Tsp42Ea	DRSC04982	3.98e7	3.48e7	1.72e7	1.52e7
Tsp42Ea	DRSC06792	3.32e7	3.64e7	1.51e7	1.61e7
CG42306 + Gint3	DRSC06934	3.75e7	3.58e7	1.86e7	1.75e7
CG3213	DRSC00576	3.49e7	1.36e7	1.66e7	7.85e6
GCS2beta	DRSC02960	3.50e7	1.89e7	1.72e7	1.05e7
CG13155	DRSC06280	2.97e7	3.55e7	1.54e7	1.67e7
lncRNA:CR40629	DRSC20959	2.65e7	2.93e7	1.35e7	1.29e7
nis	DRSC00290	3.83e7		2.11e7	
Hasp	DRSC02022	3.67e7		2.04e7	
CG43125	DRSC13866	4.01e7	3.57e7	1.85e7	1.89e7
CG13063	DRSC09946	4.62e7	5.45e7	2.06e7	2.34e7
Act87E	DRSC22578	2.97e7	3.10e7	1.60e7	1.46e7
CG31274 + MESK4	DRSC13202	4.01e7	3.85e7	2.39e7	1.88e7
PGRP-LA	DRSC10327	1.48e7	1.97e7	8.76e6	1.04e7
PGRP-LA	DRSC10414	1.33e7	2.05e7	8.89e6	1.01e7
Orc1	DRSC07496	4.16e7	2.06e7	1.94e7	1.23e7
bai	DRSC14388	4.73e7	5.02e7	2.37e7	2.13e7
CG32655	DRSC18925	3.37e7	2.73e7	1.53e7	1.39e7
eIF2beta	DRSC11341	1.15e7	1.22e7	8.23e6	8.09e6
Ctu1	DRSC07069	2.97e7	3.50e7	1.41e7	1.54e7
Cph	DRSC17507	2.95e7	2.87e7	1.52e7	1.32e7
Cph	DRSC18434	3.47e7	4.82e7	1.80e7	2.16e7
MagR	DRSC20092	3.40e7	3.43e7	1.68e7	1.44e7
CG30487	DRSC05377	4.57e7	5.45e7	2.33e7	2.23e7
Gr59e	DRSC04276	3.53e7	4.26e7	1.80e7	1.92e7
asRNA:CR43463 + Pgant35A	DRSC03557	4.74e7	4.66e7	2.13e7	2.24e7
CG18649	DRSC10334	3.14e7	5.23e7	1.56e7	2.06e7
cindr	DRSC14126	4.53e7	4.49e7	1.93e7	2.17e7
cindr	DRSC14298	3.61e7	5.73e7	1.89e7	2.27e7
